Experimental findings from article PMC7819943, “Rice protein-binding microarrays: a tool to detect cis-acting elements near promoter regions in rice” are described below.

This is one part of the list.

The target in the assay is T1, OsSMF1 (Oryza sativa, UniProt Q6ZLB0 1-436).
T1 sequence: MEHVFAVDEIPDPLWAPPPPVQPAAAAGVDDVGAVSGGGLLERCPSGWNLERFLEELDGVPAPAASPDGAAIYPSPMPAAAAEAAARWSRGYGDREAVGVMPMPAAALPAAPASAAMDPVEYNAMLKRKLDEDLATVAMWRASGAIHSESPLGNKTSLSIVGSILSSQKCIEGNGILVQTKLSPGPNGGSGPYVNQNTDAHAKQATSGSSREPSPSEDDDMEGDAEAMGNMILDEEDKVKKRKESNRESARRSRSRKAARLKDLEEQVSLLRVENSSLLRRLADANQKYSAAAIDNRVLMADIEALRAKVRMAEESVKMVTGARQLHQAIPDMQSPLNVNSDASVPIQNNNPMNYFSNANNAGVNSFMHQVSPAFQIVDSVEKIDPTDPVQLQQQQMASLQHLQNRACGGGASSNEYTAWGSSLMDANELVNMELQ
Put plainly: protein-binding microarray (RPBM); PBS, 2% BSA, 51.3 ng/ul salmon testes DNA, 50 uM zinc acetate, 200 nM TF, 25 C, 1 h; high values mean tight binding. The conditions noted are these: protein: recombinant; tags: N-terminal polyhistidine and DsRed monomer fusion (pET32a); chain copies: 2; label: CyDye5-dUTP incorporated in the synthesized complementary strand; 3' TTTTT single-stranded linker to array surface; dsDNA, one strand shown. Put shortly:
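Binding signal here means per-feature fluorescence intensity in arbitrary units. The values were read on an Axon 4000B scanner after a custom Agilent array, double-stranded by primer extension with Cy5-dUTP, was incubated with 200 nM protein at 25 °C for 1 h in PBS with 2% BSA, salmon testes DNA and 50 µM zinc acetate, then washed. The proteins were transcription factors with an N-terminal polyhistidine tag and DsRed, expressed in E. coli BL21-CodonPlus and purified on Ni–NTA.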
Take “TAATCCTTATTAAATGAGGTGTACGTGAGTAGGAAGATGGCGGAGTCACCTAGTGCAG”: the binding signal was 4000 fluorescence intensity (a.u.).
To “CGGAGTGGCCAGCGTGGTGACAAGCGCGACGTGGCGGCTTCGGAGTCACCTAGTGCAG” belongs 6830 fluorescence intensity (a.u.); to “TAAATGACGTCAGCCAAACGGTATCACCATTCTTCAGACTCGGAGTCACCTAGTGCAG”, 12000 fluorescence intensity (a.u.); to “CAAATGCCACCTAAGCGCCACGTCAACCCCATAGACTAGGCGGAGTCACCTAGTGCAG”, 34200 fluorescence intensity (a.u.).
To “CGTCGTGCCAGTGACAGCGTGGGCCATCGTGTTTTGGGCACGGAGTCACCTAGTGCAG” belongs 5180 fluorescence intensity (a.u.).
Turning to “ATCTAGCTTCATCTTATGACATCAACAACTTTTCTGATTGCGGAGTCACCTAGTGCAG”, the binding signal is 4730 fluorescence intensity (a.u.).
The figure for “TTACAGATAATTACATCACTATCGGCTGGATGAGTCTTTCCGGAGTCACCTAGTGCAG” is 3660 fluorescence intensity (a.u.); for “CAGTAGTTGACTTGAGACGAAGATGAACACAGGCCTAATACGGAGTCACCTAGTGCAG” it is 21600 fluorescence intensity (a.u.); for “CCTGGTGGGTTGCGTGCGCGAGATGGTGGCGCTCATGGTGCGGAGTCACCTAGTGCAG” it is 4800 fluorescence intensity (a.u.).
Regarding “CTCTAGTCAACGCGCCCACGTGGACCAGTTGTTCATCGAGCGGAGTCACCTAGTGCAG”, the binding signal is 12400 fluorescence intensity (a.u.).
To “CACCACCCCTCGCCGCCGCAGCGCCGCCACGTCCTCGCCGCGGAGTCACCTAGTGCAG” belongs 14900 fluorescence intensity (a.u.); to “CCAACCATGCCACGCTGGACTCCGACCCGACCCCGACCCGCGGAGTCACCTAGTGCAG”, 7380 fluorescence intensity (a.u.).
The figure for “CACTAAACGTATCGTCGACAATTAGATACCTATGATGACTCGGAGTCACCTAGTGCAG” is 5080 fluorescence intensity (a.u.); for “TACTAGCAGTTGTGCCATGAATATTCACCAGTCAGCATCCCGGAGTCACCTAGTGCAG” it is 3170 fluorescence intensity (a.u.); for “CATGCATCATTATACTAGTCGTCGTCATATAAATAGCGGACGGAGTCACCTAGTGCAG” it is 3760 fluorescence intensity (a.u.).
As to “CACCTAAGTAAATGATTTCTGAACACGCCAGCCTGATGTACGGAGTCACCTAGTGCAG”, the binding signal is 3890 fluorescence intensity (a.u.).
To “TTCGAGCTAGTACTAACTGCTATCGTCATGACCCGGGTGACGGAGTCACCTAGTGCAG” belongs 3810 fluorescence intensity (a.u.); to “TCGAATCAACATGTTTTCATGAATTATGAGCTGTCAATGACGGAGTCACCTAGTGCAG”, 5640 fluorescence intensity (a.u.); to “GCTCGAATTGCCACGTAAGCGCCACGTCAATGCCACGTCACGGAGTCACCTAGTGCAG”, 65500 fluorescence intensity (a.u.).
The figure for “GCATCGCCGTCCCAGGAACTTGGACACGTCGCCTCTCGCCCGGAGTCACCTAGTGCAG” is 5130 fluorescence intensity (a.u.); for “ATGCCCTTATGCAGTCCACTGCCACATGTTAGATCCGAATCGGAGTCACCTAGTGCAG” it is 3800 fluorescence intensity (a.u.).
“CACCGCCCACCGTCGGCCCGCGTCATCCCTCTAAGCTCAGCGGAGTCACCTAGTGCAG”: the binding signal was 7580 fluorescence intensity (a.u.).
To “GGCCGCCACCACCGCCGTACCCCTGCGGGTGGCCGACGATCGGAGTCACCTAGTGCAG” belongs 3220 fluorescence intensity (a.u.); to “GTGTGTGTGTGTGCTGCGTGTGCGTGTGCGCGCGCGTGCCCGGAGTCACCTAGTGCAG”, 5210 fluorescence intensity (a.u.).
On to “ATTAATAAATAACACGTATATAAAATATAATATGAATATTCGGAGTCACCTAGTGCAG”, for which the binding signal is 3950 fluorescence intensity (a.u.).
To “GTTTAGCCAGAATTCAGCCAGCTCACGCAACGCCAACTCACGGAGTCACCTAGTGCAG” belongs 4840 fluorescence intensity (a.u.); to “AGGATGACATGTGGGTCCCACTTGTCAATGGGTCCCCATGCGGAGTCACCTAGTGCAG”, 4000 fluorescence intensity (a.u.).
The figure for “AGGACCAAATGACATGGTACATTTGGGGAGATTTGGTTTGCGGAGTCACCTAGTGCAG” is 3440 fluorescence intensity (a.u.); for “GCTGCGGCAGCAATGCGCATCAACCGTGGTGGCAACGACACGGAGTCACCTAGTGCAG” it is 17600 fluorescence intensity (a.u.); for “GAGAGATGGGGAGAGATGAGGAAGAAGGGTAGGGTGGAGACGGAGTCACCTAGTGCAG” it is 4010 fluorescence intensity (a.u.).
To “AGAGCGATCTGATCGACCGAGTTGTGTCATGCCGTACTACCGGAGTCACCTAGTGCAG” belongs 4330 fluorescence intensity (a.u.); to “TACTTATTGTTTATGAGAAATTTTAGAAATAATTGTATTTCGGAGTCACCTAGTGCAG”, 3260 fluorescence intensity (a.u.).
Consider “CCGAGGATATGTGTGACCCACATGTCAGTAGAACTGCTGACGGAGTCACCTAGTGCAG”, for which the binding signal was 3800 fluorescence intensity (a.u.).
Take “AGTTTTGCTATTATGCCACCGCCGCCACGCTTTTGCTGATCGGAGTCACCTAGTGCAG”: the binding signal was 3560 fluorescence intensity (a.u.).
The figure for “ACTACAAGCCACGAATGTGACGGAAGCTTCTACTACTCGCCGGAGTCACCTAGTGCAG” is 3710 fluorescence intensity (a.u.); for “TCAAGAAAACATGCACACCGTGCACACGTACGAAGCCGGTCGGAGTCACCTAGTGCAG” it is 3270 fluorescence intensity (a.u.); for “ACAAACAGTACGACGTGACGTGGCAAAGTATCGTCCATCACGGAGTCACCTAGTGCAG” it is 20800 fluorescence intensity (a.u.).
For the sequence “TTATCAACCAAACCTCACGGTTGCATCACCCAGGATGTGTCGGAGTCACCTAGTGCAG”, the binding signal was 4540 fluorescence intensity (a.u.).
To “AGCAAGCAATTGCACATCACTCGACAGTCCACACAGTGCACGGAGTCACCTAGTGCAG” belongs 3620 fluorescence intensity (a.u.); to “TTGTGGTCCTGTCGTCATCCTGTGGAGTTGTGGTGAGTGTCGGAGTCACCTAGTGCAG”, 4280 fluorescence intensity (a.u.); to “TCCCGACGTGCGTCATCAAGGTGTACCACGCCGCGAGATCCGGAGTCACCTAGTGCAG”, 5280 fluorescence intensity (a.u.).
Take “GGGCTGCTGGTTTCCAAGGATAATAAACGCACGACGACCCCGGAGTCACCTAGTGCAG”: the binding signal is 3430 fluorescence intensity (a.u.).
As to “GTGCGAGATCTAGCTAGCTATACGGAGTTGTGTGACAGTCCGGAGTCACCTAGTGCAG”, the binding signal is 17800 fluorescence intensity (a.u.).
As to “GAGGCAAAACGGCAGACGTGTGCACGTATCACGGTGATAGCGGAGTCACCTAGTGCAG”, the binding signal was 7200 fluorescence intensity (a.u.).
Take “TTTGCATCTCGATGAGTTGTACAACTTTGATTTTGGTGACCGGAGTCACCTAGTGCAG”: the binding signal was 3860 fluorescence intensity (a.u.).
As to “AATAAAGGTCACATCCACGTTGACAAGTCAGAAAAGGGTACGGAGTCACCTAGTGCAG”, the binding signal was 6520 fluorescence intensity (a.u.).
The figure for “CGTATCTCATCTTTTCGTTTATACTTATACTTATCAGTCACGGAGTCACCTAGTGCAG” is 3230 fluorescence intensity (a.u.); for “TATCATACAAATGACGACACCACACAAACGGCGGCCCAAGCGGAGTCACCTAGTGCAG” it is 4320 fluorescence intensity (a.u.); for “TGGTTCATCACGTCAGTGTCTTACGGCTGCAGACTGCGCCCGGAGTCACCTAGTGCAG” it is 4960 fluorescence intensity (a.u.).
For “CAGATTCAGCTCATCACTTCAAAATCATAGGCTTAAAGCGCGGAGTCACCTAGTGCAG”, the binding signal is 5570 fluorescence intensity (a.u.).
On to “CTCACTCAAACTTGTCCACGTATGTGAATAGCCGAATCAGCGGAGTCACCTAGTGCAG”, for which the binding signal is 6780 fluorescence intensity (a.u.).
Regarding “CTGGCTTGCAACTACTACCCGTTAAGACCACGCGCGCCTCCGGAGTCACCTAGTGCAG”, the binding signal is 3280 fluorescence intensity (a.u.).
The figure for “GCCGGCCGCTCATCGGGATGGCGCGGCGGAGGCGGTGGGGCGGAGTCACCTAGTGCAG” is 4890 fluorescence intensity (a.u.); for “CTTCAGTCCTTTTCCATCACATCAACCTGTCATACACACACGGAGTCACCTAGTGCAG” it is 3470 fluorescence intensity (a.u.).
